Values from PubChem BioAssay AID1053208 (Peter MacCallum Cancer Centre, 2014).
Here is a random part of about 17,000 reagents. In the full data, 788 (4.7%) are marked active. 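Calls rest on z-score classes alone; an extra cut-off of viability at most 70% of control was not applied to them.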 Unmarked entries are inactive.

Purpose: 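Find knock-downs that sensitise mouse osteosarcoma cells to doxorubicin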 (primary screen)
Cell system: mouse osteosarcoma cells, early-passage culture from an engineered mouse model of fibroblastic bone tumour
Knock-down reagent: siRNA pool against mouse genes, 40 nM
Time to read-out: about 120 h (48 h before drug, then 72 h with drug)
Conditions: doxorubicin 100 nM for 72 h, roughly 30-40% inhibitory dose
Measured: 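Luminescent ATP signal taken as viability with or without 100 nM doxorubicin for 72 h; mean of two wells set against non-targeting siRNA and turned into robust z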
Scale: viability z-score with doxorubicin and doxorubicin viability vs non-targeting: higher = more viable cells under doxorubicin; viability z-score without drug: higher = more viable cells with knock-down alone; z-score of drug to no-drug ratio: higher = less drug sensitisation by knock-down
Active means: 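a pool counts as active when its viability z-score with doxorubicin is -2 or below and its z-score without drug lies between -2 and 2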

gene | combined z-score class | viability z-score with doxorubicin | viability z-score without drug | z-score of drug to no-drug ratio | doxorubicin viability vs non-targeting
Foxd2 (forkhead box D2) | no change with or without drug | 0.9 | 1.85 | -0.22 | 1.02
Polq (polymerase (DNA directed), theta) | no change with or without drug | -0.45 | 1.85 | -1.46 | 0.9
Psmc3 (proteasome (prosome, macropain) 26S subunit, ATPase 3) | low cell count with and without drug | -6.41 | -7.25 | -3.04 | 0.37
Dach1 (dachshund family transcription factor 1) | no change with or without drug | 0.11 | 0.84 | -0.34 | 0.95
Irak4 (interleukin-1 receptor-associated kinase 4) | no change with or without drug | 0.9 | 0.84 | 0.45 | 1.02
Or13a1 (olfactory receptor family 13 subfamily A member 1) | no change with or without drug | 1.57 | 1.35 | 0.79 | 1.08
Mamstr | no change with or without drug | -0.9 | 0 | -0.79 | 0.86
Spc24 | no change with or without drug | -0.67 | -0.84 | 0 | 0.88
Kcnj2 (potassium inwardly-rectifying channel, subfamily J, member 2) | no change with or without drug | 0 | -0.17 | 0.22 | 0.94
Mrpl50 (mitochondrial ribosomal protein L50) | no change with or without drug | 0.34 | -1.85 | 1.91 | 0.97
Cldn3 (claudin 3) | no change with or without drug | -0.67 | 1.01 | -1.24 | 0.88
G6pc3 (glucose 6 phosphatase, catalytic, 3) | no change with or without drug | -0.22 | -0.51 | 0.22 | 0.92
Zbtb7a (zinc finger and BTB domain containing 7a) | no change with or without drug | -0.22 | 0.51 | -0.45 | 0.92
Osbp (oxysterol binding protein) | no change with or without drug | 1.91 | 1.85 | 0.79 | 1.11
Slc25a29 | no change with or without drug | -1.46 | -0.17 | -1.35 | 0.81
Cacnb2 (calcium channel, voltage-dependent, beta 2 subunit) | no change with or without drug | -0.22 | 0.34 | -0.34 | 0.92
Tshr (thyroid stimulating hormone receptor) | no change with or without drug | 0 | 0 | 0.11 | 0.94
Ppp4r1 (protein phosphatase 4, regulatory subunit 1) | no change with or without drug | 1.35 | 0.51 | 1.12 | 1.06
Tbca (tubulin cofactor A) | no change with or without drug | -0.22 | 0 | -0.11 | 0.92
Mical2 | no change with or without drug | -1.12 | -1.85 | 0.22 | 0.84

Part of the list above, set out differently:
Kcnj2 (potassium inwardly-rectifying channel, subfamily J, member 2)
- combined z-score class: no change with or without drug
- viability z-score with doxorubicin: 0
- viability z-score without drug: -0.17
- z-score of drug to no-drug ratio: 0.22
- doxorubicin viability vs non-targeting: 0.94

Mrpl50 (mitochondrial ribosomal protein L50)
- combined z-score class: no change with or without drug
- viability z-score with doxorubicin: 0.34
- viability z-score without drug: -1.85
- z-score of drug to no-drug ratio: 1.91
- doxorubicin viability vs non-targeting: 0.97
